In PMC10761119, “Phosphorylation-state dependent intraneuronal sorting of Aβ differentially impairs autophagy and the endo-lysosomal system” (Autophagy, 2023):

System: mouse brain fractions (WTxTHY1-YFP and APP-PSEN1dE9×THY1-YFP)
Assay: ELISA of Aβ species in sucrose, SDS and formic acid soluble mouse brain fractions
Format: in vivo
Settings: mean ± S.D., n = 4 mice, N = 2

Substance: non-modified amyloid-β [nmAβ]
- Aβ concentration, SDS, APP-PSEN1dE9 (SDS soluble brain fraction, APP-PSEN1dE9×THY1-YFP mice): 71.4 ± 4.5 pg/µg
- Aβ concentration, SDS, WT (SDS soluble brain fraction, WTxTHY1-YFP mice): 0 ± 1.6 pg/µg
- Aβ concentration, FA, APP-PSEN1dE9 (formic acid soluble brain fraction, APP-PSEN1dE9×THY1-YFP mice): 124.1 ± 18.2 pg/µg
- Aβ concentration, FA, WT (formic acid soluble brain fraction, WTxTHY1-YFP mice): 0.3 ± 5.2 pg/µg
- Aβ concentration, Sucrose, APP-PSEN1dE9 (sucrose soluble brain fraction, APP-PSEN1dE9×THY1-YFP mice, normalized to WT fractions): 28 ± 4.8 pg/µg
- Aβ concentration, Sucrose, WT (sucrose soluble brain fraction, WTxTHY1-YFP mice, normalized to WT fractions): 0 ± 2.3 pg/µg
